According to patent publication US6339069B1 (Elan PharmaceuticalsTechnologies, Inc., priority 1996, dated 2002):
HELM strings list residues between dots; [ac] is acetyl, [am] amide, other brackets name non-standard units.

Test: general procedure: solution-phase peptide synthesis; 1,3-dicyclohexylcarbodiimide / 4-dimethylaminopyridine (p-nitrophenyl ester)
Settings: lipidation step

PEPTIDE1{[MeOSuc].A.A.P.V.[DOPE]}$$$$V2.0
final purity (method not given) (TLC, two solvent systems): >99% | step yield (on the basis of DOPE): 95% yield
